The other results are listed elsewhere or left out. The main result of the screen is listed elsewhere. These columns were measured beside it and carry no call. The list favours compounds with an active or inconclusive main result. Potencies come from curve fits of mixed quality, noted in brackets.
Test: qHTS Assay for Lipid Storage Modulators in Drosophila S3 Cells;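 on cell number change: cells counted by Cell Tracker Red CMTPX staining in the red channel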
Details: BODIPY lipid droplet fluorescence, 18-24 h; for cell number change: measured here: cell count max response, cells fed with added oleic acid
Method in brief: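 Drosophila S3 cells got compounds at several concentrations plus oleic acid (400 uM solution). Laser-scanning cytometry with 488 nm excitation read lipid droplets at 500-530 nm and cells at 575-640 nm. Percent activity was relative to 20 uM Triacsin C.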

[1] = measured here: cell number channel AC50, cells fed with added oleic acid
[2] = measured here: lipid fluorescence (Fed channel) AC50, cells fed with added oleic acid

Row | SMILES | cell number change | AC50 [1] | AC50 [2]
1 | O=C(Nc1ccc(N2CCN(C(=O)c3cccs3)CC2)cc1)c1ccccc1F | 158% | 25.9 µM [rising, partial curve] | 
2 | Cc1nnc2n1N=CC=C(c1ccccc1)S2 | 5.6% |  | 
3 | Cc1ccc(CSCCNC(=O)CN(c2ccc(F)cc2)S(C)(=O)=O)cc1 | 4.11% |  | 0.116 µM [falling, full curve, poor fit]
4 | Cc1ccccc1-c1cc(C(=O)NCc2cccc(C(F)(F)F)c2)nn1CC1CC(c2cccc([N+](=O)[O-])c2)=NO1 (centres undefined) | 14.8% |  | 5.17 µM [falling, partial curve]
5 | COC(=O)c1cc(S(=O)(=O)NCc2cccc(OC)c2)cn1C | -1.15% |  | 6.51 µM [rising, single point]
6 | CC(=O)c1ccc2c(c1)C1C=CCC1C(c1cc3c(cc1Br)OCO3)N2 (centres undefined) | 18.7% | 0.517 µM [rising, full curve, poor fit] | 
7 | COc1ccc(N(CC(=O)NCc2cccnc2)S(=O)(=O)c2c(C)nn(C)c2C)cc1 | -35.7% | 6.51 µM [falling, single point] | 6.51 µM [falling, single point]
8 | Cc1nc(C)c(C(=O)Nc2ccccc2-c2ccccc2)o1 | -23.1% |  | 16.4 µM [falling, single point]
9 | O=c1oc2ccccc2c(N2CCCC2)c1CN1CCCC1 | 0.804% | 0.82 µM [rising, single point] | 
10 | CCc1cc2c(=O)n(Cc3ccco3)c(SCC(=O)N(C)C3CCS(=O)(=O)C3)nc2s1 (centres undefined) | 46% |  | 2.59 µM [rising, partial curve]
11 | Cc1ccccc1OCC(O)CN1CCN(CC(O)COc2ccccc2C)CC1 (centres undefined) | -14.5% |  | 
12 | O=C(CN1c2ccccc2Sc2ccccc21)NNC(=O)Nc1cccc(Cl)c1 | -26.3% |  | 4.61 µM [falling, partial curve]
13 | COc1ccc(CCNC(=O)CCS(=O)(=O)c2cccc3nsnc23)cc1OC | 3.38% |  | 6.51 µM [rising, single point]
14 | COc1cc(NC(=O)CSc2nnc3ccc(-c4ccncc4)nn23)cc(OC)c1 | 8.58% |  | 0.92 µM [rising, full curve, poor fit]
15 | O=C1CCC(NC(=O)c2ccccc2)C(=O)N1 (centres undefined) | -51% | 32.6 µM [falling, partial curve, poor fit] | 29.1 µM [falling, single point]
16 | O=C(Nc1ccc(F)cc1)N1CCCN(c2nccc(C(F)(F)F)n2)CC1 | -0.793% | 6.51 µM [falling, single point] | 4.61 µM [falling, single point]
17 | S=C(Nc1ccccc1)N(CCN1CCOCC1)Cc1cccc(Cl)c1 | -15.1% |  | 18.4 µM [falling, single point]
18 | CCOC(=O)[C@H]1[C@H]2COc3ccc(Br)cc3[C@H]2N2C(=O)CNC(=O)[C@@]12C | -12.7% |  | 0.092 µM [falling, single point]

Row | SMILES | cell number change | AC50 [1] | AC50 [2]
19 | COc1ccc(OCc2cc(C(=O)N3C[C@@H](C)O[C@@H](C)C3)no2)c(Cl)c1 | 27.8% |  | 6.51 µM [rising, single point]
20 | CC(=O)Nc1ccccc1-c1ccc(C)o1 | -17.4% |  | 0.00461 µM [rising, full curve, poor fit]
21 | CCS(=O)(=O)C1=NN2C(=N)/C(=C\c3ccc(OS(=O)(=O)c4ccccc4)cc3)C(=O)N=C2S1 |  |  | 29.1 µM [falling, single point]
22 | O=C(COC(=O)CNC(=O)C1CCCCC1)Nc1ccc2c(c1)OCCO2 | 9.16% | 0.00517 µM [rising, full curve, poor fit] | 
23 | CC(=O)c1cccc(OCc2cc(C(=O)N(C)C(C)c3ccccn3)no2)c1 (centres undefined) | 4.53% |  | 0.164 µM [rising, full curve, poor fit]
24 | COc1ccc(OCC(O)CN(C)C(=O)/C=C/c2cccc([N+](=O)[O-])c2)cc1 (centres undefined) | -39.2% | 5.8 µM [falling, partial curve] | 
25 | CCOc1ccccc1N1CCN(C(=O)c2csc(C)c2CC)CC1 | 61.5% | 0.517 µM [rising, full curve] | 0.731 µM [rising, full curve]
26 | CCOC(=O)N1CCN(C(=O)c2ccc3c(c2)NC(=O)/C(=C/c2ccccc2)S3)CC1 | -31.1% | 18.4 µM [falling, single point] | 
27 | Cc1ccc([C@@H]2CC=C(C(=O)O)[C@H](c3ccccc3)N2S(=O)(=O)c2ccc(C)cc2)cc1 | -7.19% |  | 0.146 µM [rising, full curve, poor fit]
28 | O=S(=O)(N1CCCCCC1)N1CCN(S(=O)(=O)N2CCCCC2)CC1 | -87.2% | 23.1 µM [falling, single point] | 0.92 µM [falling, partial curve]
29 | O=C(CN1c2ccccc2Sc2ccccc21)N/N=C/c1ccc(Cl)cc1Cl | -0.774% | 0.082 µM [rising, partial curve, poor fit] | 0.0731 µM [rising, partial curve, poor fit]
30 | CNC(=O)COc1coc(CN2CCN(c3ccc(F)cc3)CC2)cc1=O | 12.5% |  | 29.1 µM [rising, single point]
31 | COc1cc(NC(=O)CCCC(=O)OCC(F)(F)C(F)F)nc(OC)n1 | 18.2% |  | 4.11 µM [rising, single point]
32 | Cc1cc(C)c(S(=O)(=O)N2CCN(C(=O)N3CCCCC3)CC2)c(C)c1 | -2.1% |  | 
33 | O=C(NCC1CCN(c2ccc(S(=O)(=O)N3CCOCC3)cc2)CC1)c1cccc(Cl)c1 | 32.3% | 9.2 µM [rising, single point] | 3.26 µM [rising, single point]
34 | COCCCNC(=S)Nc1ccc(C)cc1 | 4.26% |  | 0.103 µM [falling, partial curve, poor fit]
35 | CC(O)(CS(=O)(=O)Cc1ccccc1Cl)C(=O)Nc1cccc(C(F)(F)F)c1 (centres undefined) | 10.1% |  | 
36 | CC(C)(C)Nc1cccccc1=O | -9.98% |  | 0.206 µM [falling, full curve]

Molecules from the list above that have bromine, in the order listed:
Row | SMILES | cell number change | AC50 [1] | AC50 [2]
6 | CC(=O)c1ccc2c(c1)C1C=CCC1C(c1cc3c(cc1Br)OCO3)N2 (centres undefined) | 18.7% | 0.517 µM [rising, full curve, poor fit] | 
18 | CCOC(=O)[C@H]1[C@H]2COc3ccc(Br)cc3[C@H]2N2C(=O)CNC(=O)[C@@]12C | -12.7% |  | 0.092 µM [falling, single point]

From PubChem BioAssay AID2685 (National Center for Advancing Translational Sciences (NCATS), 2010)
